{"source": "patent US20060084790A1", "about": "“P-Rex1, a ptdins (3,4,5) p3-g-beta-gamma-regulated guanine-nucleotide exchange factor for rac” (The Babraham Institute, priority 2002, published 2006)", "key": {"[1]": {"test_system": "neutrophil cytosol and low-density membranes (ROS formation)", "assay": "ROS formation assay with neutrophil cytosol and membrane fractions", "assay_type": "biochemical, pig", "conditions": "200 nM; FIG. 1A", "description": "Neutrophil-enriched leukocytes were isolated from pigs' blood, sonicated in 0.25 M sucrose, 0.1 M KCl, 50 mM Hepes/NaOH pH 7.2 (4° C.), 1 mM DTT, 2 mM EGTA, 0.1 mM PMSF and 1× antiproteases (20 μg/ml of each antipain, aprotinin, pepstatin and leupetin) and centrifuged (100,000×g, 1 h, 4° C.) to yield cytosol and light membrane fractions (4.5 mg/ml protein, collected between 0.60 and 1.35 M sucrose and washed in sonication buffer). Light membranes (3 μl) were pre-mixed with Gβγ subunits, p101/p110γ-PI3K and/or N17-Rac (or boiled controls) in 6 μl containing 5 mM ATP, 8 mM MgCl2, 20 mM Hepes/NaOH pH 7.5 (4° C.), 2 mM EGTA, 10 mM β-glycerophosphate, 0.1 mM ortho-vanadate, 0.1 M KCl, 1 mM DTT, 0.01% (w/v) Na azide. After 25 min on ice, 20 μl was added containing 15 μl cytosol and 1 mM MgGTP, 20 μM FAD, 400 μM NADPH and 200 μM luminol. After 8 min at RT, single photon counts (SPC) per 0.1 min were quantitated in a scintillation counter at intervals of 3-5 min for up to 20 min (blanks without cytosol were subtracted). When lipids were added, they were preincubated with the membranes, and 10 μM GTPγS replaced MgGTP. Where wortmannin was added, it was preincubated with both cytosol and membrane fractions for 15 min on ice. Where EE-Rac1 was added, it was preloaded with different guanine nucleotides at a 5-fold excess over bound GDP."}, "PAE cells": {"test_system": "PAE cells", "assay": "Immunofluorescence microscopy of lamellipodia formation in myc-P-Rex1 transfected PAE cells", "assay_type": "cell-based, pig", "conditions": "unstimulated P-Rex1-expressing cells, wortmannin 100 nM, 10 min", "description": "Pig aortic endothelial (PAE) cells were transiently transfected with pCMV3-myc-P-Rex1 or pCMV3-myc-DAPP1 by electroporation, grown on coverslips for 10 h and then serum starved for 8 h. They were then treated or not with 100 nM wortmannin for 10 min followed by stimulation with varying doses of PDGF for 5 min. Cells were fixed and prepared for immunofluorescence microscopy by staining of P-Rex1 and DAPP1 with anti-myc epitope-tag primary and FITC-goat anti-mouse secondary antibodies and filamentuous actin with TRITC-phalloidin as previously described (Welch et al. 1998)."}}, "note": "At least one structure is not confirmed: it was looked up by name or label, or the drawing left a doubt.", "data": [{"smiles": "COC[C@H]1OC(=O)c2coc3c2[C@@]1(C)C1=C(C3=O)[C@@H]2CCC(=O)[C@@]2(C)C[C@H]1OC(C)=O", "note": "[wortmannin]", "values": [{"measurement": "effect on p101/p110γ-PI3K- and Gβγ-mediated activation of ROS formation", "setting": "[1]", "result": "inhibited"}, {"measurement": "change in proportion of cells showing the V12-like phenotype", "setting": "PAE cells", "result": "reduced by half"}]}]}
